Changes are numbered by the printed parent chain. This is one part of the list. For some assays here: At the low end of the ranking, values are background and their order means little. Where only a bound is given, the exact number is not on record here.

Conditions in all cases: yeast three-hybrid, YBZ-1, SC-Leu-His + 0.5 mM 3-AT, 4 days
Assay [1] has as its target T1, PUM1 PUF domain R6-AYE N1043A + Q1047E (UniProt Q14671).
T1 sequence: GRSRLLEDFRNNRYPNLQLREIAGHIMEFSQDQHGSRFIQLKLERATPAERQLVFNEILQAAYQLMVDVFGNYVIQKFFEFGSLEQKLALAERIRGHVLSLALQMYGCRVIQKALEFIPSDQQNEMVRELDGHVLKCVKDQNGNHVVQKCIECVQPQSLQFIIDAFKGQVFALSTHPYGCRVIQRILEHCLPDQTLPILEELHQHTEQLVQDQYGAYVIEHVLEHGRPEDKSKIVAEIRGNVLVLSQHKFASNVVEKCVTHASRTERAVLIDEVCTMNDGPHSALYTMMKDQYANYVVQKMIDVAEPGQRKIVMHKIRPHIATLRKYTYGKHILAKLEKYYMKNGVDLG

Assay [2] concerns the target T2, PUM1 PUF domain R6-CYE N1043C + Q1047E (UniProt Q14671).
T2 sequence: T1 sequence with A216C

In assay [3] the target is T3, PUM1 PUF domain R6-NWP Y1044W + Q1047P (UniProt Q14671).
T3 sequence: T1 sequence with A216N, Y217W, E220P

Assay [4] deals with T4, PUM1 PUF domain R6-RYA N1043R + Q1047A (Homo sapiens) (UniProt Q14671).
T4 sequence: T1 sequence with A216R, E220A

The target in assay [5] is T5, PUM1 PUF domain R6-SRQ N1043S + Y1044R (UniProt Q14671).
T5 sequence: T1 sequence with A216S, Y217R, E220Q

The target in assay [6] is T6, PUM1 PUF domain R6-SWC N1043S + Y1044W + Q1047C (UniProt Q14671).
T6 sequence: T1 sequence with A216S, Y217W, E220C

Assay [7] deals with T7, PUM1 PUF domain R6-SWD N1043S + Y1044W + Q1047D (UniProt Q14671).
T7 sequence: T1 sequence with A216S, Y217W, E220D

Assay [8] has as its target T8, PUM1 PUF domain R6-SWQ N1043S + Y1044W (UniProt Q14671).
T8 sequence: T1 sequence with A216S, Y217W, E220Q

In assay [9] the target is T9, PUM1 PUF domain R6-SYM N1043S + Q1047M (UniProt Q14671).
T9 sequence: T1 sequence with A216S, E220M

Assay [10] has as its target T10, PUM1 PUF domain R6-TFD N1043T + Y1044F + Q1047D (UniProt Q14671).
T10 sequence: T1 sequence with A216T, Y217F, E220D

The target of assay [11] is T11, PUM1 PUF domain R6-THR N1043T + Y1044H + Q1047R (Homo sapiens) (UniProt Q14671).
T11 sequence: T1 sequence with A216T, Y217H, E220R

Assay [12] concerns the target T12, PUM1 PUF domain R6-VFV N1043V + Y1044F + Q1047V (UniProt Q14671).
T12 sequence: T1 sequence with A216V, Y217F, E220V

Assay [13] deals with T13, PUM1 PUF domain R6-VWG N1043V + Y1044W + Q1047G (UniProt Q14671).
T13 sequence: T1 sequence with A216V, Y217W, E220G

The target of assay [14] is T14, PUM1 PUF domain R6-VWK N1043V + Y1044W + Q1047K (UniProt Q14671).
T14 sequence: T1 sequence with A216V, Y217W, E220K

In assay [15] the target is T15, PUM1 PUF domain R6-VWM N1043V + Y1044W + Q1047M (UniProt Q14671).
T15 sequence: T1 sequence with A216V, Y217W, E220M

Assay [16] has as its target T16, PUM1 PUF domain R6-VWY N1043V + Y1044W + Q1047Y (UniProt Q14671).
T16 sequence: T1 sequence with A216V, Y217W, E220Y

Assay [17] concerns the target T17, PUM1 PUF domain R6-VYC N1043V + Q1047C (UniProt Q14671).
T17 sequence: T1 sequence with A216V, E220C

The target in assay [18] is T18, PUM1 PUF domain R6-VYE N1043V + Q1047E (UniProt Q14671).
T18 sequence: T1 sequence with A216V

For assay [19], the target named is T19, PUM1 PUF domain R6-VYN N1043V + Q1047N (UniProt Q14671).
T19 sequence: T1 sequence with A216V, E220N

Assay [20] addresses T20, PUM1 PUF domain R6-VYQ N1043V (UniProt Q14671).
T20 sequence: T1 sequence with A216V, E220Q

On to “GGCUAGAACUAGUGGAUCCCCCGGCGCCCGGCGGCUCGAGCCCGGGUAAGUGCAAAUAGUCUGCAUGCCGCCGGGCGCCAUGCCUGCAGGUCGACUCUAGAAAACAUG”, for which the binding signal (log2 enrichment (interaction score)) is -5.37 in assay [1]; -5.44 in [2]; -3.9 in assay [3]; -0.44 in [4]; less than -7.81 in assay [5]; less than -6.3 in assay [6]. For the same sequence, the binding signal (log2 enrichment (interaction score)) is -5.06 in assay [7]; -5.45 in [8]; less than -6.9 in [9]; -5.88 in assay [10]; 0.31 in assay [11]; less than -8.45 in assay [12]. The binding signal (log2 enrichment (interaction score)) was less than -8.14 in assay [13]; less than -6.01 in assay [14]; less than -6.83 in [15]; less than -6.66 in assay [16]; less than -6.73 in assay [17]; less than -6.27 in assay [18]. The binding signal (log2 enrichment (interaction score)) in [19] was less than -6.01; in assay [20] it was less than -6.7.
